Measured values taken from doi:10.1101/2022.09.23.508845.
These are yes or no findings as the source states them, for the method shown. Binding seen in cells or lysates may run through a third protein. Binding calls can cover weak binding; strength is not graded here.

Columns and labels:
HaloTag TELO2 (human) = experiment: FRET or BRET
[1] = target: 3xFlag-TELO2 full length (human); experiment: co-IP

binding (HaloTag TELO2 (human))	binding [1]	Binder
binds	–	GNB1L (NanoBRET construct) (protein, UniProt Q9BYB4 1-327) MTAPCPPPPPDPQFVLRGTQSPVHALHFCEGAQAQGRPLLFSGSQSGLVHIWSLQTRRAVTTLDGHGGQCVTWLQTLPQGRQLLSQGRDLKLCLWDLAEGRSAVVDSVCLESVGFCRSSILAGGQPRWTLAVPGRGSDEVQILEMPSKTSVCALKPKADAKLGMPMCLRLWQADCSSRPLLLAGYEDGSVVLWDVSEQKVCSRIACHEEPVMDLDFDSQKARGISGSAGKALAVWSLDWQQALQVRGTHELTNPGIAEVTIRPDRKILATAGWDHRIRVFHWRTMQPLAVLAFHSAAVQCVAFTADGLLAAGSKDQRISLWSLYPRA
–	binds	GNB1L (endogenous) (protein, UniProt Q9BYB4 1-327) MTAPCPPPPPDPQFVLRGTQSPVHALHFCEGAQAQGRPLLFSGSQSGLVHIWSLQTRRAVTTLDGHGGQCVTWLQTLPQGRQLLSQGRDLKLCLWDLAEGRSAVVDSVCLESVGFCRSSILAGGQPRWTLAVPGRGSDEVQILEMPSKTSVCALKPKADAKLGMPMCLRLWQADCSSRPLLLAGYEDGSVVLWDVSEQKVCSRIACHEEPVMDLDFDSQKARGISGSAGKALAVWSLDWQQALQVRGTHELTNPGIAEVTIRPDRKILATAGWDHRIRVFHWRTMQPLAVLAFHSAAVQCVAFTADGLLAAGSKDQRISLWSLYPRA
